These are yes or no findings as the source states them, for the method shown. A result given as binding can be weak or reduced; the word gives no strength. For some of these results: In cells and extracts the contact can be indirect. For some of these results: Sequences can lack the tags named with a protein.
Key:
[1] = target: T1, OsGRF4 (rice (Oryza sativa ssp. japonica, Nipponbare)) (UniProt Q6ZIK5); experiment: two-hybrid; prey vector pGADT7 and bait vector pGBKT7 co-transformed into yeast AH109; grown on SD-Leu-Trp, interaction tested on SD-Ade-His-Leu-Trp solid media
T1 sequence: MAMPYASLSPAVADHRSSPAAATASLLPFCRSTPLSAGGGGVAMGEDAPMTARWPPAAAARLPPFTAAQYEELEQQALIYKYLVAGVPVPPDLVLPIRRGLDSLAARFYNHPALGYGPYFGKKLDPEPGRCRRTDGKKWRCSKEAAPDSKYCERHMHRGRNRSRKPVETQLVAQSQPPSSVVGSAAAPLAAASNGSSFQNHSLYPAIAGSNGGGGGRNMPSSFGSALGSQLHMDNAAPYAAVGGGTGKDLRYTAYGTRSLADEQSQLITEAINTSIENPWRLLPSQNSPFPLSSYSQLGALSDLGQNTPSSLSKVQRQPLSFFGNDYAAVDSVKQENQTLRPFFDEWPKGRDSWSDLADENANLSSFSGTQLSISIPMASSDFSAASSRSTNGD

[2] = target: T2, OsGRF6 (rice (Oryza sativa ssp. japonica, Nipponbare)) (UniProt Q6AWY3); experiment: as above
T2 sequence: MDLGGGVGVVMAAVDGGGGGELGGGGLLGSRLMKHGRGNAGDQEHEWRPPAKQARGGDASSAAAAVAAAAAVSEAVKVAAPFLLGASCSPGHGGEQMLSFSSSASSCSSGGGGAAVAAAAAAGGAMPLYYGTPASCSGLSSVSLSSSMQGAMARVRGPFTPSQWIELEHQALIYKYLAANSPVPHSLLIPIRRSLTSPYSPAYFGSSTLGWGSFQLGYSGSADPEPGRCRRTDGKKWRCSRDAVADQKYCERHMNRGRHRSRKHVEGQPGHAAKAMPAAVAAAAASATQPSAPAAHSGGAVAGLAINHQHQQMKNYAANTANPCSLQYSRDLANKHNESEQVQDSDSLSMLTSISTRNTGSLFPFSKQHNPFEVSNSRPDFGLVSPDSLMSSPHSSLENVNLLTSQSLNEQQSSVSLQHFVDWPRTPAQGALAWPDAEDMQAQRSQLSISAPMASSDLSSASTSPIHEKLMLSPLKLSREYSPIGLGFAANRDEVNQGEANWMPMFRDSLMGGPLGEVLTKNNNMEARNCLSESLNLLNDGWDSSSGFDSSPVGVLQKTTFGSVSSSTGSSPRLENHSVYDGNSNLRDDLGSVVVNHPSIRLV

[3] = target: T3, cYFP-OsGRF4 (rice (Oryza sativa ssp. japonica, Nipponbare)) (UniProt Q6ZIK5); experiment: split reporter; BiFC: nYFP and cYFP fusions co-infiltrated by Agrobacteria into N. benthamiana leaves; YFP signal by confocal microscopy
T3 sequence: T1 sequence

[4] = target: T4, cYFP-OsGRF6 (rice (Oryza sativa ssp. japonica, Nipponbare)) (UniProt Q6AWY3); experiment: as above
T4 sequence: T2 sequence

| binding [1] | binding [2] | binding [3] | binding [4] | Substance |
| --- | --- | --- | --- | --- |
| binds |  |  |  | OsGIF1 |
| binds | binds |  |  | OsGIF3 |
|  |  | binds |  | nYFP-OsGIF1 |
|  |  | binds |  | nYFP-OsGIF2 |
|  |  | binds | binds | nYFP-OsGIF3 |

Reference: paper PMC8288854
